# Reference: PubChem BioAssay AID590 (National Center for Advancing Translational Sciences (NCATS), 2007)
# Out of some 59,000 compounds screened, about 6,500 (11%) were called active. This list was built around the results that the source calls inconclusive (neither active nor inactive); the mix of calls is not that of the screen. Rule as the data show it: active = max dye-equivalent concentration above about 10 nM; inconclusive = mostly about 1.1 nM to 9.6 nM; inactive = weaker than that.
# Test: qHTS Assay for Spectroscopic Profiling in A350 Spectral Region
# Conditions: Compound autofluorescence, 340/450 nm, Alexa 350 dye-equivalents; stronger effect = higher value
row,Structure (SMILES),max dye-equivalent concentration
1,Cc1ccc(OCCN2C(=O)CSC2=O)cc1,inactive
2,CC1(C)OC(=O)C(=CNCC(=O)NCC(=O)O)C(=O)O1,inconclusive: 1.5 nM
3,CC1CCCCN1C(=O)CN1C(=O)CN(C)C(=O)c2ccccc21 (stereo not given),inactive
4,O=C1CN(C(=O)c2ccccn2)c2ccccc2N1,inconclusive: 4 nM
5,CCOC(=O)CNc1c(-c2ccc(O)cc2)nc2ccccn12,active: 220 nM
6,Cc1[nH]nc2c1C1(CCN(C(=O)c3ccccc3)CC1)C(C#N)=C(N)O2,inactive
7,N#Cc1c(SCC(N)=O)nc(-c2ccccc2)c2c1CCCC2,inconclusive: 2.5 nM
8,O=S(=O)(c1ccc(OCC(O)CN2CCc3ccccc3C2)cc1)N1CCOCC1 (stereo not given),inactive
9,Cc1ccc(-c2nnc(N(C)C(=O)c3ccccn3)s2)cn1,inactive
10,COc1ccc(CNc2ncncc2-c2ccoc2)c(OC)c1,inactive
11,Cc1ccc(-c2csc3nc(=O)c(C)nn23)cc1,inconclusive: 5.9 nM
12,Cc1cc(C)c2nc(N)sc2c1,inconclusive: 1.6 nM
13,c1ccc(Nc2ncnc3c2oc2ccccc23)cc1,inconclusive: 8.7 nM
14,COCCNc1ncnc2ccc(-c3cccc(NS(C)(=O)=O)c3)cc12,inactive
15,N#Cc1cc2c(nc1SCc1ccncc1)CCC2,inconclusive: 6.3 nM
16,O=c1c(F)cn(C2CCCO2)c(=O)n1Cc1ccccc1Cl (stereo not given),inactive
17,CCSc1nnc(NC(=O)c2cccc(OCc3c(C)noc3C)c2)s1,inconclusive: 3 nM
18,CC(C)OCCCNC(=O)NC12CC3CC(CC(C3)C1)C2,inconclusive: 1.9 nM
19,CCOc1ccccc1OCCCCCc1c(C)n[nH]c1C,inconclusive: 9.7 nM
20,Cc1c2c(nc3nc4ccccc4n13)CC(C)(C)CC2=O,inconclusive: 1.8 nM

# Look-ups from the results shown:
# Value of Cc1ccc(OCCN2C(=O)CSC2=O)cc1 under max dye-equivalent concentration: inactive
# Value of CC1(C)OC(=O)C(=CNCC(=O)NCC(=O)O)C(=O)O1 under max dye-equivalent concentration: inconclusive: 1.5 nM
# Value of CC(C)OCCCNC(=O)NC12CC3CC(CC(C3)C1)C2 under max dye-equivalent concentration: inconclusive: 1.9 nM
# Value of c1ccc(Nc2ncnc3c2oc2ccccc23)cc1 under max dye-equivalent concentration: inconclusive: 8.7 nM

# The results go on:

row,Structure (SMILES),max dye-equivalent concentration
1,COCCn1nnnc1CN(CCCN1CCOCC1)Cc1cc2c(C)ccc(C)c2[nH]c1=O,inconclusive: 7.5 nM
2,CN(C)c1ncc2nc(CCc3ccccc3)c(=O)n(CCc3ccccc3)c2n1,active: 22 nM
3,O=C(O)CCc1nc(-c2ccccc2-n2cccc2)no1,inactive
4,N#Cc1ccc(CN2CCCC3(CCN(C(=O)c4ccco4)CC3)C2)cc1,inactive
5,CC[C@H](C)[C@@H]1O[C@]2(CC[C@@H]1C)C[C@H]1C[C@H](CC=C(C)[C@@H](O[C@@H]3C[C@H](OC)[C@H](O[C@@H]4C[C@H](OC)[C@H](O)[C@H](C)O4)[C@H](C)O3)[C@@H](C)C=CC=C3CO[C@@H]4[C@@H](O)C(C)=C[C@@H](C(=O)O1)[C@]34O)O2,inconclusive: 1.6 nM
6,O=C(Cc1cccs1)N1CCN(c2nc(-c3ccc(Cl)cc3)cs2)CC1,inactive
7,O=C(Nc1scc(-c2ccc(F)cc2)c1C(=O)O)c1ccco1,inactive
8,COc1ccccc1CNC(=O)CCNC(=O)Cn1ccc2ccccc2c1=O,inconclusive: 2.7 nM
9,CCOc1ncccc1C(=O)Nc1ccc2c(C)cc(=O)oc2c1,active: 46 nM
10,FC(F)(F)c1ccccc1-c1nc(NC2CC2)c2ccccc2n1,inconclusive: 2 nM
11,Cc1cc(NS(=O)(=O)Cc2ccccc2)no1,inactive
12,CN1CCN(CC(C)(C)NS(=O)(=O)c2ccc(Cl)cc2)CC1,inconclusive: 1.4 nM
13,N#Cc1cccc(NC(=O)N2CC[C@@]3(CCCN(C(=O)c4cc(C(F)(F)F)cc(C(F)(F)F)c4)C3)C2)c1,inactive
14,Cc1cc(Cl)ccc1OCC(=O)NCCCN1CCOCC1,inconclusive: 1.4 nM
15,Cc1noc(C)c1CSCC(=O)OCC(=O)N1CC(=O)Nc2ccccc21,inconclusive: 1.3 nM
16,c1cc2c3c(cccc3c1)NC1(CCCCCC1)N2,active: 14 nM
17,CN(c1cc(=O)n2ccccc2n1)C1CCCCC1,inconclusive: 5 nM
18,NC(N)=N/N=C(/c1ccccc1)c1ccc(O)cc1O,inconclusive: 1.6 nM
19,CC1CCN(C(=O)CSc2ccc3nnc(-c4ccccc4)n3n2)CC1,inconclusive: 3.1 nM
20,CC(=O)Nc1ccc(S(=O)(=O)Nc2nc3n(n2)C(c2ccccc2)CC(=O)N3)cc1 (stereo not given),inactive

row,Structure (SMILES),max dye-equivalent concentration
1,CC(NC(=O)NCc1cccnc1)(C(F)(F)F)C(F)(F)F,inactive
2,O=C(OCC(O)C(O)COC(=O)c1ccccc1)c1ccccc1 (stereo not given),inconclusive: 3.8 nM
3,CC(C)(C)N(Cc1cc2ccccc2[nH]c1=O)C(=O)c1cccnc1,inactive
4,Nc1c(C(=O)NCc2ccco2)nnn1-c1ccccc1,inconclusive: 2.3 nM
5,c1ccc(-c2noc(-c3ccc4ccccc4c3)n2)cc1,inactive
6,N#CCCCCN1c2cccc3cccc(c23)S1(=O)=O,active: 190 nM
7,CCNc1oc(COc2ccccc2F)nc1C#N,inactive
8,COc1cc(C(=O)OCC(=O)NC2CCCC2)cc(NC(=O)c2ccco2)c1OC,active: 18 nM
9,CNc1oc(-c2ccc(Cl)cc2)nc1C#N,active: 110 nM
10,CCOc1cc2[nH]c(=O)n(CC3CCC(C(=O)NCCCOC)CC3)c(=O)c2cc1OCC (stereo not given),inactive
11,COc1ccc(C2C(C(=O)c3sc(C)nc3C)=C(O)C(=O)N2CCCn2ccnc2)cc1 (stereo not given),inactive
12,CN(C)c1ccc(C=Nc2cnn(C)c2C(N)=O)cc1,inconclusive: 7.5 nM
13,COCCCNC(=O)c1c(N)n(/N=C/c2ccccn2)c2nc3ccccc3nc12,inactive
14,COc1ccc(-n2c(=O)c(-c3ccccc3)nc3cnc(N4CCOCC4)nc32)cc1,inconclusive: 2.5 nM
15,COc1cc(NC(=O)c2ncn[nH]2)cc(OC)c1OC,inconclusive: 1.8 nM
16,O=c1[nH]nc2n1CCCCC2,active: 40 nM
17,Cc1ccc(OCC(O)CN2CCN(CC(O)COc3ccc(C)cc3)CC2)cc1 (stereo not given),inconclusive: 1.6 nM
18,Cc1ccc(S(=O)(=O)NC(CC(=O)O)c2ccco2)cc1 (stereo not given),inconclusive: 6.2 nM
19,CSc1nnc2n(-c3ccccc3)c(=O)c3c4c(sc3n12)CCC4,inactive
20,CCOCC(=O)Nc1nc2ccc(OCC)cc2s1,inconclusive: 8.9 nM
